# Laboratory results as given in publication PMC4236683.
# Sequences of proteins named here, by UniProt entry; tags and fusion partners are left off. A change or cut given only in a name is not applied to a line headed by its entry. Residues count along the entry.
# UniProt P70206: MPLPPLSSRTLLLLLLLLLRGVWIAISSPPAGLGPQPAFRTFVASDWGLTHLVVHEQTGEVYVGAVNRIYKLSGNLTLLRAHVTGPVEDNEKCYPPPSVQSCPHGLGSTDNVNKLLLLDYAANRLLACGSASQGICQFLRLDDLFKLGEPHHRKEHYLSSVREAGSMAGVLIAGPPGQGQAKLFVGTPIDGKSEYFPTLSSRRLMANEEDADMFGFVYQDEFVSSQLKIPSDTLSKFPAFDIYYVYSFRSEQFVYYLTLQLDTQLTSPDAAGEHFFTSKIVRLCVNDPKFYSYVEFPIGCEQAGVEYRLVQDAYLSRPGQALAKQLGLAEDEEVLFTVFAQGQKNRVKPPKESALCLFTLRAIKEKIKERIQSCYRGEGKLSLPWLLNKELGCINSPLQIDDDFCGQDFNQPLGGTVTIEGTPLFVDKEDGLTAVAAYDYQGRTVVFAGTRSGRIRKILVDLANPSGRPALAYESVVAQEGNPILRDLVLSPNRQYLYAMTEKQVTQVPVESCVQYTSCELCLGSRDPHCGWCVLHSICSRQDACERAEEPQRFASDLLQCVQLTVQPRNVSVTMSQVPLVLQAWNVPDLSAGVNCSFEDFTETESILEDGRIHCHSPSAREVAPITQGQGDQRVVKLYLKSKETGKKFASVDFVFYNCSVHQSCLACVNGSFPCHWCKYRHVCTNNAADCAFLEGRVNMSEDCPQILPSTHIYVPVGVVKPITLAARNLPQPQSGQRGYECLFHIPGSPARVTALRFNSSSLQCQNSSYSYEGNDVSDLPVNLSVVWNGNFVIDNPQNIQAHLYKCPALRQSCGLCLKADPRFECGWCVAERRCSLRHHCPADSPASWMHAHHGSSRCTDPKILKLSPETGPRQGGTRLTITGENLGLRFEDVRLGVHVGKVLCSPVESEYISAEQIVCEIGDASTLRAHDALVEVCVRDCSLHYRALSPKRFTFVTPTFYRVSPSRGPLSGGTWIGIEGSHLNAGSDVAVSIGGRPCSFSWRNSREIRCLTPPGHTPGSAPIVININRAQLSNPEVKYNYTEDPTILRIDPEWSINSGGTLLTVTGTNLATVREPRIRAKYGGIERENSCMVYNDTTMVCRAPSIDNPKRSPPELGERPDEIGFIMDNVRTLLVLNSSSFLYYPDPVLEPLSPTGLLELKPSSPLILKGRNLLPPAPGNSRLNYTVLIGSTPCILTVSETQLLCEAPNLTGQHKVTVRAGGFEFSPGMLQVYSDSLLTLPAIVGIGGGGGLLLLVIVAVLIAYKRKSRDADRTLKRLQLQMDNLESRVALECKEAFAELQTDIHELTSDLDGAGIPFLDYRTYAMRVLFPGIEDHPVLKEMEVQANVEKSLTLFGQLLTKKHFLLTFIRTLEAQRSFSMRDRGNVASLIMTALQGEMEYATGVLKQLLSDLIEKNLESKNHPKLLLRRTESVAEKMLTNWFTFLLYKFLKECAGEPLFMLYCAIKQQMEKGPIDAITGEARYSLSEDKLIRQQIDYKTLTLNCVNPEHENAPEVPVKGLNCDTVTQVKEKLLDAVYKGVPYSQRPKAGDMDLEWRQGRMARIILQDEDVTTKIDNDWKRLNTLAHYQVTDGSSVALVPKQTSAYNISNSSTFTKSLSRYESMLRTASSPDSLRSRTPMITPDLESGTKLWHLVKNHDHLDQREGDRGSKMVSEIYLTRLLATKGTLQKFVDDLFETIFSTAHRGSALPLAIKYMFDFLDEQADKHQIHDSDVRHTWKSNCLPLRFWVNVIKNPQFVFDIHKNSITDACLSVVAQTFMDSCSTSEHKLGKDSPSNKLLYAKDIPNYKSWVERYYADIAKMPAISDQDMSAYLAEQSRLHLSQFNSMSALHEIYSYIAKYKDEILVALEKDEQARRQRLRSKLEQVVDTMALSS
# endogenous PlexA1 on mouse hippocampal neurons (mouse (endogenous in primary hippocampal neurons)): residues 28-1894 of P70206
# PlexA1 lacking the cytoplasmic domain (PlexA1^Δcyt): residues 28-1283 of P70206
# No constants are given. Whether binding was seen depends on the method and setting. For some assays here: Binding seen in cells or lysates may run through a third protein. Some binding calls cover weakened binding; strength is not graded here. Tags and fused reporters may be left off the sequences shown.
# T1: 6xMyc-Sema5A^ΔTSR-GFP (rat) (UniProt D3ZTD8)
# T1 sequence: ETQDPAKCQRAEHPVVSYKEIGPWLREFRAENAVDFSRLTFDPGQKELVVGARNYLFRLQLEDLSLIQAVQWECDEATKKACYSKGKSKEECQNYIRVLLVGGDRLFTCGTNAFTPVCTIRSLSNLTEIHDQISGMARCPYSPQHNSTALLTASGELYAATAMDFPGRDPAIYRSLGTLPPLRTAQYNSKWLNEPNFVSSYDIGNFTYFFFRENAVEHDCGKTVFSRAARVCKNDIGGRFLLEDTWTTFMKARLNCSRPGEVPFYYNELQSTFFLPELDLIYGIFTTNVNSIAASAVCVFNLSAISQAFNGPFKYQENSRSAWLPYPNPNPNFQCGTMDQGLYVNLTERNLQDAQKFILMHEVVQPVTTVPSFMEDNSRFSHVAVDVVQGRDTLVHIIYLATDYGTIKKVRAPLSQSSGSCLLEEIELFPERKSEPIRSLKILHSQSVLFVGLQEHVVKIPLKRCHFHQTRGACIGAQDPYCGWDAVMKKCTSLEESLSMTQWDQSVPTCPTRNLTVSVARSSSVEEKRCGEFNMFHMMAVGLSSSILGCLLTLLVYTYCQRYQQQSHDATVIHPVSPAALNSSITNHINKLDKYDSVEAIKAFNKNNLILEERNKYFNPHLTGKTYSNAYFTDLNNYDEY
# T2: PlexA2 lacking the cytoplasmic domain (PlexA2^Δcyt) (mouse) (UniProt P70207)
# T2 sequence: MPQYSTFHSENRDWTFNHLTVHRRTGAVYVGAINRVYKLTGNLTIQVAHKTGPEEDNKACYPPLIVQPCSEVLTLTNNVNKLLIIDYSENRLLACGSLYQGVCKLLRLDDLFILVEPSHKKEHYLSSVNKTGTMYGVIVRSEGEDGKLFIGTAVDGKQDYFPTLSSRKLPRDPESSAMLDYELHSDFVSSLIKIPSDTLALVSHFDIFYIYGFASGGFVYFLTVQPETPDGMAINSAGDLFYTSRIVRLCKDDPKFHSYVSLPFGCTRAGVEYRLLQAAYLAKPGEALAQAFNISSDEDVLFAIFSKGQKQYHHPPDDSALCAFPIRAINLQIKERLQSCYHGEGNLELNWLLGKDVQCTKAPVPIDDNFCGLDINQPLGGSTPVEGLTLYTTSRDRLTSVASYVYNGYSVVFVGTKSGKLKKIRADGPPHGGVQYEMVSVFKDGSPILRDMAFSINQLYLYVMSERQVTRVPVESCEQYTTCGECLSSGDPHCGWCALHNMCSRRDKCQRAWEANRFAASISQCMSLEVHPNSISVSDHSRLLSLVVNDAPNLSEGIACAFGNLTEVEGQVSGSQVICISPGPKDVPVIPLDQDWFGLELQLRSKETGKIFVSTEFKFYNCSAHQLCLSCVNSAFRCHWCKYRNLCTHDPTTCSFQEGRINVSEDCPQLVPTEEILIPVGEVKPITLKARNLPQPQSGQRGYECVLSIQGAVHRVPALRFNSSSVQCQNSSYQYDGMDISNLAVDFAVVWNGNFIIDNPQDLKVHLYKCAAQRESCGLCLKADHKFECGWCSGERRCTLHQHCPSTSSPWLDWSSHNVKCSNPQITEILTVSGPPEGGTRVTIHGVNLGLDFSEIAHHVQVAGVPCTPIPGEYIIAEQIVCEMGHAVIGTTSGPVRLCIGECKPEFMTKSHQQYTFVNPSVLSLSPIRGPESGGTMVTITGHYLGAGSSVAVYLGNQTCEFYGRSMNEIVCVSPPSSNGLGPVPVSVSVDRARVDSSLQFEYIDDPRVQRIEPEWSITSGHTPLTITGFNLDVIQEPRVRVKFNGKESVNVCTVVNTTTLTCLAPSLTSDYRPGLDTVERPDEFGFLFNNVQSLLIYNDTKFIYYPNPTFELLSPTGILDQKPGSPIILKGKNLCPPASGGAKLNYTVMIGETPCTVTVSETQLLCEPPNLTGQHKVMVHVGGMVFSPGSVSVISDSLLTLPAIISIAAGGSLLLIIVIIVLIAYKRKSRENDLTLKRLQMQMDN
# Assays:
# [1] = biological target: T1, 6xMyc-Sema5A^ΔTSR-GFP (rat); experiment: co-IP; HEK293T cells co-transfected (low-density cultures); lysis in 20 mM TrisHCl pH 7.5, 150 mM NaCl, 1% CHAPS, 1% Triton X-100; IP with mouse anti-GFP, anti-myc immunoblot
# [2] = biological target: endogenous PlexA1 on mouse hippocampal neurons (mouse (endogenous in primary hippocampal neurons)) (UniProt P70206); experiment: binding of AP-clustered Fc fusion protein to primary neurons; non-transfected primary mouse hippocampal neurons of WT and knock-out mice, Fc fusion protein preclustered with anti-human IgG-AP, NeuroBasal medium, NBT/BCIP; only the binder purified
# [3] = biological target: endogenous PlexA2 on mouse hippocampal neurons (mouse (endogenous in primary hippocampal neurons)) (UniProt P70207); experiment: as above
# [4] = biological target: full-length PlexA2 with an N-terminal 6xMyc tag (mouse) (UniProt P70207); experiment: binding of AP-clustered Fc fusion protein to transfected cells (cis competition); Sema5A-Fc super-clustered with anti-Fc-AP on COS7 cells co-expressing PlexA2 with GFP, Sema6D, Sema5A, S5A^Δcyt or S5A^ΔTSR; bound ligand quantified; only the binder purified
# [5] = biological target: T2, PlexA2 lacking the cytoplasmic domain (PlexA2^Δcyt) (mouse); experiment: binding of AP-clustered Fc fusion protein to transfected cells; COS7 cells transfected with PlexA or semaphorin constructs, incubated 75 min in OptiMEM with Fc fusion protein preclustered with anti-human IgG conjugated to alkaline phosphatase; rinsed, fixed, developed with NBT/BCIP; only the binder purified
# [6] = biological target: PlexA2 RasGAP-deficient mutant (PlexA2^RR) (mouse) (UniProt P70207); experiment: as above
# [7] = biological target: full-length PlexA1 with an N-terminal 6xMyc tag (mouse) (UniProt P70206); experiment: as above
# [8] = biological target: full-length PlexA2 with an N-terminal 6xMyc tag (mouse) (UniProt P70207); experiment: as above
# [9] = biological target: PlexA1 lacking the cytoplasmic domain (PlexA1^Δcyt) (mouse) (UniProt P70206); experiment: as above
# [10] = biological target: endogenous PlexA1 on mouse hippocampal neurons (mouse (endogenous in primary hippocampal neurons)) (UniProt P70206); experiment: ligand bound to cells, detected by Western blot; hippocampal neurons from WT, Plxna1-/- and Plxna2-/- mice incubated with Sema5A-Fc (50 nM) for 1 hr, rinsed extensively, lysed, Western blot; only the binder purified
# [11] = biological target: endogenous PlexA2 on mouse hippocampal neurons (mouse (endogenous in primary hippocampal neurons)) (UniProt P70207); experiment: as above
binding [1],binding [2],binding [3],binding [4],binding [5],binding [6],binding [7],binding [8],binding [9],binding [10],binding [11],Binder
binds,,,,,,,,,,,"PlexA2 lacking the cytoplasmic domain (PlexA2^Δcyt) (receptor, UniProt P70207 35-1280) MPQYSTFHSENRDWTFNHLTVHRRTGAVYVGAINRVYKLTGNLTIQVAHKTGPEEDNKACYPPLIVQPCSEVLTLTNNVNKLLIIDYSENRLLACGSLYQGVCKLLRLDDLFILVEPSHKKEHYLSSVNKTGTMYGVIVRSEGEDGKLFIGTAVDGKQDYFPTLSSRKLPRDPESSAMLDYELHSDFVSSLIKIPSDTLALVSHFDIFYIYGFASGGFVYFLTVQPETPDGMAINSAGDLFYTSRIVRLCKDDPKFHSYVSLPFGCTRAGVEYRLLQAAYLAKPGEALAQAFNISSDEDVLFAIFSKGQKQYHHPPDDSALCAFPIRAINLQIKERLQSCYHGEGNLELNWLLGKDVQCTKAPVPIDDNFCGLDINQPLGGSTPVEGLTLYTTSRDRLTSVASYVYNGYSVVFVGTKSGKLKKIRADGPPHGGVQYEMVSVFKDGSPILRDMAFSINQLYLYVMSERQVTRVPVESCEQYTTCGECLSSGDPHCGWCALHNMCSRRDKCQRAWEANRFAASISQCMSLEVHPNSISVSDHSRLLSLVVNDAPNLSEGIACAFGNLTEVEGQVSGSQVICISPGPKDVPVIPLDQDWFGLELQLRSKETGKIFVSTEFKFYNCSAHQLCLSCVNSAFRCHWCKYRNLCTHDPTTCSFQEGRINVSEDCPQLVPTEEILIPVGEVKPITLKARNLPQPQSGQRGYECVLSIQGAVHRVPALRFNSSSVQCQNSSYQYDGMDISNLAVDFAVVWNGNFIIDNPQDLKVHLYKCAAQRESCGLCLKADHKFECGWCSGERRCTLHQHCPSTSSPWLDWSSHNVKCSNPQITEILTVSGPPEGGTRVTIHGVNLGLDFSEIAHHVQVAGVPCTPIPGEYIIAEQIVCEMGHAVIGTTSGPVRLCIGECKPEFMTKSHQQYTFVNPSVLSLSPIRGPESGGTMVTITGHYLGAGSSVAVYLGNQTCEFYGRSMNEIVCVSPPSSNGLGPVPVSVSVDRARVDSSLQFEYIDDPRVQRIEPEWSITSGHTPLTITGFNLDVIQEPRVRVKFNGKESVNVCTVVNTTTLTCLAPSLTSDYRPGLDTVERPDEFGFLFNNVQSLLIYNDTKFIYYPNPTFELLSPTGILDQKPGSPIILKGKNLCPPASGGAKLNYTVMIGETPCTVTVSETQLLCEPPNLTGQHKVMVHVGGMVFSPGSVSVISDSLLTLPAIISIAAGGSLLLIIVIIVLIAYKRKSRENDLTLKRLQMQMDN"
,binds,binds,binds,binds,binds,binds,binds,binds,binds,binds,"Sema5A-Fc (Sema5A ectodomain fused to Fc) (Fc fusion, UniProt D3ZTD8 23-961) ETQDPAKCQRAEHPVVSYKEIGPWLREFRAENAVDFSRLTFDPGQKELVVGARNYLFRLQLEDLSLIQAVQWECDEATKKACYSKGKSKEECQNYIRVLLVGGDRLFTCGTNAFTPVCTIRSLSNLTEIHDQISGMARCPYSPQHNSTALLTASGELYAATAMDFPGRDPAIYRSLGTLPPLRTAQYNSKWLNEPNFVSSYDIGNFTYFFFRENAVEHDCGKTVFSRAARVCKNDIGGRFLLEDTWTTFMKARLNCSRPGEVPFYYNELQSTFFLPELDLIYGIFTTNVNSIAASAVCVFNLSAISQAFNGPFKYQENSRSAWLPYPNPNPNFQCGTMDQGLYVNLTERNLQDAQKFILMHEVVQPVTTVPSFMEDNSRFSHVAVDVVQGRDTLVHIIYLATDYGTIKKVRAPLSQSSGSCLLEEIELFPERKSEPIRSLKILHSQSVLFVGLQEHVVKIPLKRCHFHQTRGACIGAQDPYCGWDAVMKKCTSLEESLSMTQWDQSVPTCPTRNLTVDGSFGPWSPWTPCTHTDGTAVGSCLCRSRSCDSPAPQCGGWQCEGPRMEITNCSRNGGWTPWTSWSPCSTTCGIGFQVRQRSCSNPTPRHGGRVCVGQNREERYCNEHLLCPPHVFWTGWGPWERCTAQCGGGIQARRRTCENGPDCAGCNVEYQPCNTNACPELKKTTPWTPWTPVNISDNGGHYEQRFRYTCKARLPDPNLLEVGRQRIEMRYCSSDGTSGCSTDGLSGDFLRAGRYSAHTVNGAWSAWTSWSQCSRDCSRGIRNRKRVCNNPEPKYGGMPCLGPSLEFQECNILPCPVDGVWSCWSSWSKCSATCGGGHYMRTRSCTNPAPAYGGDICLGLHTEEALCNTQTCPENWSEWSEWSVCDASGTQVRTRQCILLFPVGSQCSGNTTESRPCVFDSNFIPEVSVARSSSVEEK"
